No constants are given. Whether binding was seen depends on the method and setting. Binding seen in cells or lysates may run through a third protein. Tags and fused reporters may be left off the sequences shown.
Target: Ku70
Experiment: co-IP; Myc-tagged TBK1 constructs coexpressed with V5-tagged adaptors in HEK293 cells; Frackelton buffer (10 mM Tris/HCl pH 7.5, 50 mM NaCl, 1% Triton X-100); anti-Myc agarose or anti-V5 agarose, 2 h at 4°C; immunoblotting with anti-Myc and anti-V5

B1: V5-tagged TANK (protein, UniProt P70347 1-448)
chain: MSLKRHSLRRNACHLETRAGIPTILYSDATGQRGMDKNIGEQLNRAYEAFRQACMDRDSAVRELQQKQTENYEQRIREQQEQLSFQQNLIDRLKSQLLLVDSSRDNSYGYVPLLEDSDRRKNNLTLDEPHDKVKLGTLRDKQSKVRRQEVSSGKESAKGLNIPLHHERDNIEKTFWDLKEEFHRICLLAKAQKDHLSKLNIPDIATDTQCSVPIQCTDKTEKQEALFKPQAKDDINRGMSCVTAVTPRGLGRDEEDTSFESLSKFNVKFPPMDNDSIFLHSTPEAPSILAPATPETVCQDRFNMEVRDNPGNFVKTEETLFEIQGIDPITSAIQNLKTTDKTNPSNLRATCLPAGDHNVFYVNTFPLQDPPDAPFPSLDSPGKAVRGPQQPFWKPFLNQDTDLVVPSDSDSELLKPLVCEFCQELFPPSITSRGDFLRHLNTHFNGET
In the case of B1, the binding is reported as “no binding”.
